From PMC11381343
No constants are given. Whether binding was seen depends on the method and setting. Binding seen in cells or lysates may run through a third protein. Some results given as binding are weak or reduced against the parent protein; the word gives no strength.

By UniProt entry, the sequences of proteins in these tests, tags left out. Where a name states a change or a piece, a line headed by the entry shows the natural chain unless it says otherwise.
UniProt P54132: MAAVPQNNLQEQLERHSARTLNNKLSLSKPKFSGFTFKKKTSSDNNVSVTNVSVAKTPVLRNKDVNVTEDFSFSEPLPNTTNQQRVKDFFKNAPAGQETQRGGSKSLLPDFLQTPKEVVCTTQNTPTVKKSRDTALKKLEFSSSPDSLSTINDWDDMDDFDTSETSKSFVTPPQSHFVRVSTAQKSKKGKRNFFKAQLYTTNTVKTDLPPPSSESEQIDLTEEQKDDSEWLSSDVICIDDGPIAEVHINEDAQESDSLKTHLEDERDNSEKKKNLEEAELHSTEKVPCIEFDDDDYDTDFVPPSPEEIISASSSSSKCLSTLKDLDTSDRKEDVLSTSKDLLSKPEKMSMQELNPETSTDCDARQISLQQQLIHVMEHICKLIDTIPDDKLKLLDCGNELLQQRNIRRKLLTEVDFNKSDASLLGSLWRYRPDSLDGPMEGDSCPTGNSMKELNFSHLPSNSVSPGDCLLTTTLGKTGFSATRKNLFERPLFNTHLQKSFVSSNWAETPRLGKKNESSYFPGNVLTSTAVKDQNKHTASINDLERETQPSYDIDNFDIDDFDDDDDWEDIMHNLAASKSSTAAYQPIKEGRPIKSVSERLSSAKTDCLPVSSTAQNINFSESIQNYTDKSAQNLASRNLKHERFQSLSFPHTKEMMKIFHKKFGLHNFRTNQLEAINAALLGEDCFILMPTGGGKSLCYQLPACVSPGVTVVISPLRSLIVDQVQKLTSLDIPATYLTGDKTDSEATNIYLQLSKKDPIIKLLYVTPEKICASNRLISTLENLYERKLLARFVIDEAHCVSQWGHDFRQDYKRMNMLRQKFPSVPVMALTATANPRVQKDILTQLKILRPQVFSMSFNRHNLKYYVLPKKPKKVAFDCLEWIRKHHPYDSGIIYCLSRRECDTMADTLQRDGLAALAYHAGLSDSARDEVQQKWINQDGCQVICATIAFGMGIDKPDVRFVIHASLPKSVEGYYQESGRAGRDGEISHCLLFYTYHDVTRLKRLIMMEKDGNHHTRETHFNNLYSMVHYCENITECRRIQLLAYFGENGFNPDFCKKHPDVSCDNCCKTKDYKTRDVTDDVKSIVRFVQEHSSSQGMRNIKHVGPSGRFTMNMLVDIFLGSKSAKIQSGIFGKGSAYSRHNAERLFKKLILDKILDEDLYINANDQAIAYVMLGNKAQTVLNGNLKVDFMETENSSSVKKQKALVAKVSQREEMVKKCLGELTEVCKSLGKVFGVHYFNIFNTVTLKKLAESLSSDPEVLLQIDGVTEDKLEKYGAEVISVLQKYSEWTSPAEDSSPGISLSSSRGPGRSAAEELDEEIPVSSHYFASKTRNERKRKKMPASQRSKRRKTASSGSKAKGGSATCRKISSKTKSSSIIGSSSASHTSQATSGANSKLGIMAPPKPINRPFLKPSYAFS
UniProt P54274: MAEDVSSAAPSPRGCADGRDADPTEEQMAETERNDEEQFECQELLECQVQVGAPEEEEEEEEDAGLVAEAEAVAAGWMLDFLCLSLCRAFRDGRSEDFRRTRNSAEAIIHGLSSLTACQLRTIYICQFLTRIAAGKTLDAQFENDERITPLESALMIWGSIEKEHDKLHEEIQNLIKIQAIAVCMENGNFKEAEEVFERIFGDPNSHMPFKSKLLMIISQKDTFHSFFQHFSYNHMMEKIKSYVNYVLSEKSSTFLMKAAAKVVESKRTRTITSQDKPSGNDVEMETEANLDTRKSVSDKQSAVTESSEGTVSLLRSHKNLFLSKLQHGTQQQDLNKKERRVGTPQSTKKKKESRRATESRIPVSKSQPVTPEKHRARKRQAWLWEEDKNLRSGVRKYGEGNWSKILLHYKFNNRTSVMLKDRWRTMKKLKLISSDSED

How the values were obtained:
Assay in all cases: co-IP; BLM mutants co-precipitating TRF1 (Supplementary Figure S4B); format not told
[1] = target: Flag-tagged BLM P690L, expressed in U2OS cells (human) (UniProt P54132)
[2] = target: Flag-tagged BLM, wild type, expressed in U2OS cells (human) (UniProt P54132)
[3] = target: Flag-tagged BLM 3A (F686A, L688A, P690A), expressed in U2OS cells (human) (UniProt P54132)

Measured: binding

TRF1 (from UniProt P54274 1-439)
binds: all assays above
